Reference: the supplement of paper PMC12067093, “Discovery and optimisation of a covalent ligand for TRIM25 and its application to targeted protein ubiquitination” (Chemical Science, 2025)
Some of the results follow.

Sequences of proteins named here, by UniProt entry; tags and fusion partners are left off. A change or cut given only in a name is not applied to a line headed by its entry.
UniProt Q06210: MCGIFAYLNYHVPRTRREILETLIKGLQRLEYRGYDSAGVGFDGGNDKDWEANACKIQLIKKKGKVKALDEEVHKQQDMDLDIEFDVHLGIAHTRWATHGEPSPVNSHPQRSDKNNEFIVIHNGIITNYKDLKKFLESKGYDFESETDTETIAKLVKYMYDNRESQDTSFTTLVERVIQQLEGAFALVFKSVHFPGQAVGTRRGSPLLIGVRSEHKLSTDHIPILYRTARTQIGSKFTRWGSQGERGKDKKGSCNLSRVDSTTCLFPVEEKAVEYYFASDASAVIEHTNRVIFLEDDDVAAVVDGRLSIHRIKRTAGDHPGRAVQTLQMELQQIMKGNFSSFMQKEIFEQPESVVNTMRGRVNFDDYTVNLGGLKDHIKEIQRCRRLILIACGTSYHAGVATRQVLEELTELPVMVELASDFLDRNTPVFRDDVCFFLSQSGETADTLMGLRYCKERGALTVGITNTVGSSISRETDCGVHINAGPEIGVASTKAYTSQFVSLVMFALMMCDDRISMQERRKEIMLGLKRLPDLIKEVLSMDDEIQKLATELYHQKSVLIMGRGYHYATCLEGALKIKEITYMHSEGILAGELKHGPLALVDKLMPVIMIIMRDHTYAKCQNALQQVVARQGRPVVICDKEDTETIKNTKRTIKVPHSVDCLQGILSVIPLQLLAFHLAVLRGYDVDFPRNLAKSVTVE
UniProt Q01415: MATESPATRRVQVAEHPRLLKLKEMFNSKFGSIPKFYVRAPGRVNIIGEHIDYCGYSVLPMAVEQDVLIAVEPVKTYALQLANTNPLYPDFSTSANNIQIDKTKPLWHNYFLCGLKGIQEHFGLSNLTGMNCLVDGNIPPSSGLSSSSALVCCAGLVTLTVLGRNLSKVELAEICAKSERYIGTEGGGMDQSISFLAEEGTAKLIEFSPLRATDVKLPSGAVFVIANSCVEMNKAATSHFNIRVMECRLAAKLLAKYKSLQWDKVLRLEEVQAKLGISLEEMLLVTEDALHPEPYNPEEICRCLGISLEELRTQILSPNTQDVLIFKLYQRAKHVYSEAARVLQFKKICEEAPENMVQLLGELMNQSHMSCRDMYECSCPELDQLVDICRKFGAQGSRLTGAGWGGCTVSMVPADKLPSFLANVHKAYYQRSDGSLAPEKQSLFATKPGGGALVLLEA
UniProt Q8IWJ2: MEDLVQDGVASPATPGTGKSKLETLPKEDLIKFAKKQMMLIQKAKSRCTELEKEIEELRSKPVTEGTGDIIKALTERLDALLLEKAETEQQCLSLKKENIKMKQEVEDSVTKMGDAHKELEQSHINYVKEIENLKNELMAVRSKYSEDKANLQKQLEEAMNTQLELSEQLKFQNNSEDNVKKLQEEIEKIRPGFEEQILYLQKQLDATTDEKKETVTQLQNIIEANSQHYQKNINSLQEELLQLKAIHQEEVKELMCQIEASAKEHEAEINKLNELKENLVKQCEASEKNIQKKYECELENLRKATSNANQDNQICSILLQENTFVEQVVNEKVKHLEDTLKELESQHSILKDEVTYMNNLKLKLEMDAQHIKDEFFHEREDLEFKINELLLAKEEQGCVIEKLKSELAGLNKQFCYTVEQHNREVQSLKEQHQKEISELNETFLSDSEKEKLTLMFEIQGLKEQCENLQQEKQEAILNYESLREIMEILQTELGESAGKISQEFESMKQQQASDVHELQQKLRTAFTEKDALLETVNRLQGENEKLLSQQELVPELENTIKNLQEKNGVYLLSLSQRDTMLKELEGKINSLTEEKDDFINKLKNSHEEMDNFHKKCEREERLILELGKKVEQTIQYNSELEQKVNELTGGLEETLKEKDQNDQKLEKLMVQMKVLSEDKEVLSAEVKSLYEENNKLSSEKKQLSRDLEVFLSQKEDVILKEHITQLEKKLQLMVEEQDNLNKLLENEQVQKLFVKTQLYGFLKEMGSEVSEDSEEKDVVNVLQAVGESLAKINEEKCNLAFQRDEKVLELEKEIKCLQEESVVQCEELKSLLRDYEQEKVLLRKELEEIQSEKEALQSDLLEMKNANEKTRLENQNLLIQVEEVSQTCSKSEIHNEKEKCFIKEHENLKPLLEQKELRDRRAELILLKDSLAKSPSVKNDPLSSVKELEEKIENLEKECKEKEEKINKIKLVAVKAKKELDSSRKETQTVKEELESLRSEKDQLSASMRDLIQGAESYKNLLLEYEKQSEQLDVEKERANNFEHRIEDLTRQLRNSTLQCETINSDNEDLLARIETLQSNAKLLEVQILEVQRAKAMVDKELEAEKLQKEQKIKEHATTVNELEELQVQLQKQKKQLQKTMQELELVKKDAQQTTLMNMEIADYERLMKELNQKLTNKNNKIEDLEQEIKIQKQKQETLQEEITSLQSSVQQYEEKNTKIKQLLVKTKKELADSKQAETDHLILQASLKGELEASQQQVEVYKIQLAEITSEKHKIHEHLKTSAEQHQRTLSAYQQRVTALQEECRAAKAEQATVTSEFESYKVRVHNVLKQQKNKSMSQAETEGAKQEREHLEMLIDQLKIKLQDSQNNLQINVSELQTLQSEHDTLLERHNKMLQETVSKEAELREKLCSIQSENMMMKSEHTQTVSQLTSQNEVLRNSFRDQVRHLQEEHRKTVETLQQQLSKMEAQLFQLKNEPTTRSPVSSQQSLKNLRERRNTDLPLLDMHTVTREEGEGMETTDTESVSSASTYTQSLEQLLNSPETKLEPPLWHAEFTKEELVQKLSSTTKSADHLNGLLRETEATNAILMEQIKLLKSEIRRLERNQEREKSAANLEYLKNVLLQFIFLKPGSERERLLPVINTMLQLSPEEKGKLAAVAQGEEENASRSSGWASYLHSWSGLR
UniProt Q8WWP7: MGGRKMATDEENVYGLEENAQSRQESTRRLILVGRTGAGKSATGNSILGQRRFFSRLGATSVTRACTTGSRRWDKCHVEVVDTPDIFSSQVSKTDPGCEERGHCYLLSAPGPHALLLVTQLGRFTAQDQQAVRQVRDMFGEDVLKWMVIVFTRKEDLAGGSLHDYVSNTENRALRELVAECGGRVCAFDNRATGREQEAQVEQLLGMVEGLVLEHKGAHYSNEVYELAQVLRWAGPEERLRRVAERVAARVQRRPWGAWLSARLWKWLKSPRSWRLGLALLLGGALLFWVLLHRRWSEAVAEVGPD
UniProt Q9H3C7, whole entry, looked up: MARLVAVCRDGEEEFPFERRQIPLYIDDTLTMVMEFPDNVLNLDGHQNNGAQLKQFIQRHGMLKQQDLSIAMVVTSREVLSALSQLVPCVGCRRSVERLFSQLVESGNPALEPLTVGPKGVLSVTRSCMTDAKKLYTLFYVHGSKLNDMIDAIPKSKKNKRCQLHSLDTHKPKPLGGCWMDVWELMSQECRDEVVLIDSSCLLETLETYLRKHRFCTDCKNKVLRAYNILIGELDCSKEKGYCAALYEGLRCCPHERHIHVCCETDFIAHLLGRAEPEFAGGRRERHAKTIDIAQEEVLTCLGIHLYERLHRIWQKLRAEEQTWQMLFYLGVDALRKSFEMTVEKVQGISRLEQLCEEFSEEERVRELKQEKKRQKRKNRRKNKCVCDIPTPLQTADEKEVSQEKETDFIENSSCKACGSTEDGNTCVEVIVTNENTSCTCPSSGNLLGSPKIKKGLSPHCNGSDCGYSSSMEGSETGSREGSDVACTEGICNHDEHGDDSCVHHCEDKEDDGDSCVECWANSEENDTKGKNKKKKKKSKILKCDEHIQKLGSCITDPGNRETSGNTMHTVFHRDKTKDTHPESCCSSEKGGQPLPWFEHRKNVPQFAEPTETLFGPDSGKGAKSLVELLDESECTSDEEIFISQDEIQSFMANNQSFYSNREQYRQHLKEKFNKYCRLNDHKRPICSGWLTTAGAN
UniProt Q9Y2X7: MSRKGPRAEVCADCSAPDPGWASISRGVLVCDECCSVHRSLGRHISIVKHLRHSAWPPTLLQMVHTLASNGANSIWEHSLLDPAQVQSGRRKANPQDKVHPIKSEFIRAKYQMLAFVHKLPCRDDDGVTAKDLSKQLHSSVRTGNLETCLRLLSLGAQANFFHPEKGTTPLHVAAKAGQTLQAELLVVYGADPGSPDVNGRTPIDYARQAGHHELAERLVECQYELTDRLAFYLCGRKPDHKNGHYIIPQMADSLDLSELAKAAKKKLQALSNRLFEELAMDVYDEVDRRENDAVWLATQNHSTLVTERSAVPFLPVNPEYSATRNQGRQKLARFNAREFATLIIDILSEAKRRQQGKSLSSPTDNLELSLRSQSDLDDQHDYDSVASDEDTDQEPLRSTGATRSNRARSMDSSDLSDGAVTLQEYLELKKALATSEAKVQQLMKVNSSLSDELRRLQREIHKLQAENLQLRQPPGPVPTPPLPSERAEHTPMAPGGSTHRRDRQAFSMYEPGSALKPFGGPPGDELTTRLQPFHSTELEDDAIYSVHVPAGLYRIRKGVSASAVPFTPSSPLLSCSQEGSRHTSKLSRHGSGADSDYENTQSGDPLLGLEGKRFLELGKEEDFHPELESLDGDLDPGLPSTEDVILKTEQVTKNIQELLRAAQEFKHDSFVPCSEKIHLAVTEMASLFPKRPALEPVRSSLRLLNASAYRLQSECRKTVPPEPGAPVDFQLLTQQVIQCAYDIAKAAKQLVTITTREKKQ
UniProt P48507: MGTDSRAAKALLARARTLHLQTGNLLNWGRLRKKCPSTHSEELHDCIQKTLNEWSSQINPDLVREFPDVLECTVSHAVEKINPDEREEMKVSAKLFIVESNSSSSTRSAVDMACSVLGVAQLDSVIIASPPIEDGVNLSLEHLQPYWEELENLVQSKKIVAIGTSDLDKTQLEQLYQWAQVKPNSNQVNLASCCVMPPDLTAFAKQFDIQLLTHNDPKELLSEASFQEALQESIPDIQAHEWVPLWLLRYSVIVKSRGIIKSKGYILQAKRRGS
UniProt Q969S9: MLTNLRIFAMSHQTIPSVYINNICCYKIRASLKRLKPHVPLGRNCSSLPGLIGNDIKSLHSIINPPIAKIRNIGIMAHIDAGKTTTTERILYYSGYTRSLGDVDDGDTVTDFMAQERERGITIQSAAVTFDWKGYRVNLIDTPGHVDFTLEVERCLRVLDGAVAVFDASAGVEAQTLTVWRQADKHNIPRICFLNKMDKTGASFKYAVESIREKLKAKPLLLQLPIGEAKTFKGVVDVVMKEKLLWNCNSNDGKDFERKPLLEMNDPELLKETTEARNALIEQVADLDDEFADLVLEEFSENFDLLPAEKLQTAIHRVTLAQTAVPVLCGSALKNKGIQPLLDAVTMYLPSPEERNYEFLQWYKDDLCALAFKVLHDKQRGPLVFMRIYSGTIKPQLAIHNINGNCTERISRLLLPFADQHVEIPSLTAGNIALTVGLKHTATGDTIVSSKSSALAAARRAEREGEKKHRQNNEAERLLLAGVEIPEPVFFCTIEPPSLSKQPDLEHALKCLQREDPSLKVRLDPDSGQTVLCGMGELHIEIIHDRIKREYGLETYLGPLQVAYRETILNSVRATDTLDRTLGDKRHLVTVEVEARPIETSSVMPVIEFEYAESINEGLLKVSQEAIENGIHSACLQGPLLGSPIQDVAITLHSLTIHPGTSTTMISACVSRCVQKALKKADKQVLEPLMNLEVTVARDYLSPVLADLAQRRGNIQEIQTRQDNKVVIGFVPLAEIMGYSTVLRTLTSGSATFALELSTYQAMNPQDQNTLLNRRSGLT

compound: Cc1cc(ccc1-c1ccccc1)C(=O)N1CCCN(CC1)C(=O)CCl [compound 10]; assay: probe-labelled cysteine peptide fold change vs DMSO (competition) (log2 fold change); higher = less target engagement (more negative = stronger competition); conditions: 10 µM; THP-1; incubation time: 4 h
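Further: competitive profiling in live THP-1 cells: cysteine peptides tagged with an iodoacetamide desthiobiotin (IA-DTB) probe, intensity after compound treatment relative to DMSO-treated cells.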

Row | Target | probe-labelled cysteine peptide fold change
1 | GFPT1_Q06210_570_GYHYATCLEGALK (UniProt Q06210) | 0.0515
2 | GALK2_Q01415_407_LTGAGWGGCTVSMVPADKLPSFLANVHK (UniProt Q01415) | -0.158
3 | GCC2_Q8IWJ2_1306_VTALQEECR (UniProt Q8IWJ2) | 0.122
4 | GIMAP1_Q8WWP7_98_TDPGCEER (UniProt Q8WWP7) | -0.0325
5 | GGNBP2_Q9H3C7_586_DTHPESCCSSEK (UniProt Q9H3C7) | -0.226
6 | GIT1_Q9Y2X7_674_HDSFVPCSEK (UniProt Q9Y2X7) | 0.054
7 | GCLM_P48507_194_PNSNQVNLASCCVMPPDLTAFAK (UniProt P48507) | 0.0384
8 | GFM2_Q969S9_329_VTLAQTAVPVLCGSALK (UniProt Q969S9) | -0.0769
